The text below walks through data of ChEMBL document CHEMBL5126505, “Adenosine receptor antagonists: Recent advances and therapeutic perspective” (Eur J Med Chem, 2022).

This series in a line: physchem. To be noted: octanol/water, pH 7.4.

One may read the logD as the decadic logarithm of the distribution of all forms, ionised or not, between an organic phase and buffer at a given pH. Low readings indicate lower lipophilicity, high ones higher lipophilicity. `O=C(CN1CCCCC1)Nc1ccc2oc(-c3ccco3)nc2c1`: the pH-dependent lipophilicity (logD) at 1 h amounted to 2.33.
